Reference: paper PMC8765783, “Identification of the potential active site of the septal peptidoglycan polymerase FtsW” (PLoS Genetics, 2022)
Results are given in words; binding and its absence hold for the method and conditions named. Binding seen in cells or lysates may run through a third protein. Some entries that bind do so weakly or less than the wild type. Where a sequence is shown, tags or fusion partners need not be part of it.

Columns and labels:
Experiment in all cases: pull-down; His-tagged protein co-expressed with the untagged partner in E. coli; membranes solubilised in DDM; His-tagged protein held on a HisTrap column (50 mM Tris-HCl pH 7.5, 300 mM NaCl, 10% glycerol, 1 mM DDM, 50 mM imidazole), eluted with an imidazole gradient; SDS-PAGE with Coomassie, Bocillin FL fluorescence or anti-HA blot
His-FtsW A135T (E. coli) = molecular target: T1, His-FtsW A135T (E. coli) (UniProt P0ABG4)
T1 sequence: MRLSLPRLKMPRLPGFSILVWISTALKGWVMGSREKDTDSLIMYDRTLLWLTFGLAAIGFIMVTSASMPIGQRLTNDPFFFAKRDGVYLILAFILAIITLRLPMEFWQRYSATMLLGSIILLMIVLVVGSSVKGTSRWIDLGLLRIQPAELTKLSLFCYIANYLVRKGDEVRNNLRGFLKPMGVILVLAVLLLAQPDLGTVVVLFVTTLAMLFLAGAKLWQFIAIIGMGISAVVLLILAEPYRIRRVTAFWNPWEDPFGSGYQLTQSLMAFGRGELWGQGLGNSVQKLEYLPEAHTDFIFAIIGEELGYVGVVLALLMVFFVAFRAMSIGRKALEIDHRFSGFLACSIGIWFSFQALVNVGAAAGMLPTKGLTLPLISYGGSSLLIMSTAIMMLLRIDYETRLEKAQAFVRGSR

His-FtsW G371S (E. coli) = molecular target: T2, His-FtsW G371S (E. coli) (UniProt P0ABG4)
T2 sequence: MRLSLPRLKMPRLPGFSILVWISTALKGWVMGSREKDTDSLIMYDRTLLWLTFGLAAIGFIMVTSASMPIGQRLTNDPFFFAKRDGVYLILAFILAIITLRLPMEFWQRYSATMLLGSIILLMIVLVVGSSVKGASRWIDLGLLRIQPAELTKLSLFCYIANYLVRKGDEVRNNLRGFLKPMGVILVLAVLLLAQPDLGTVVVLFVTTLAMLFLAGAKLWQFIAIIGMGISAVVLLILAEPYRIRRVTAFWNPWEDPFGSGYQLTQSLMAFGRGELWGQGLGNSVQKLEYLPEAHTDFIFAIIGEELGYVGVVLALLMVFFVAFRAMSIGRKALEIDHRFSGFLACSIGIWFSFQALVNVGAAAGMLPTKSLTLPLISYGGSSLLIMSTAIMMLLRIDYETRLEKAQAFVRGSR

His-FtsW G381D (E. coli) = molecular target: T3, His-FtsW G381D (E. coli) (UniProt P0ABG4)
T3 sequence: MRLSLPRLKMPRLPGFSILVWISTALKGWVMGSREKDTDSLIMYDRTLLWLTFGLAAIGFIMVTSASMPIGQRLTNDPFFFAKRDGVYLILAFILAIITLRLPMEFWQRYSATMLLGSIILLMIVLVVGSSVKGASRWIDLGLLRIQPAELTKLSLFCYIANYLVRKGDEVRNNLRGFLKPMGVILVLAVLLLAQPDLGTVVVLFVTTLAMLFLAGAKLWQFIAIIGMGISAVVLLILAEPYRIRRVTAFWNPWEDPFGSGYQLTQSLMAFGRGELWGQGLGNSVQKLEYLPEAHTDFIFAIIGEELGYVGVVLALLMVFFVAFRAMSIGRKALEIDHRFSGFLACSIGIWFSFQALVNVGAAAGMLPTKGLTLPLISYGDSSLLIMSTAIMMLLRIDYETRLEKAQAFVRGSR

His-FtsW P196T (E. coli) = molecular target: T4, His-FtsW P196T (E. coli) (UniProt P0ABG4)
T4 sequence: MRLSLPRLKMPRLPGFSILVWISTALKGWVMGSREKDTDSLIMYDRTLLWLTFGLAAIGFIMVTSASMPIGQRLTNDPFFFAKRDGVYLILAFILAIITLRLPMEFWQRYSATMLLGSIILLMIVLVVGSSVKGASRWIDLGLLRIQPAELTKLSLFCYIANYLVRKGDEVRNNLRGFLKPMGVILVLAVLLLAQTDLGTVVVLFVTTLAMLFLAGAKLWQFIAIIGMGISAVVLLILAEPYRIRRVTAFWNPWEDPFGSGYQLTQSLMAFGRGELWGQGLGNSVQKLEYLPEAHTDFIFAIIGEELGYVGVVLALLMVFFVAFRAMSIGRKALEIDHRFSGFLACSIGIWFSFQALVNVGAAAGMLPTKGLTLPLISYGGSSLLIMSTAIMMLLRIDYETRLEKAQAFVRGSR

His-FtsW Y242H (E. coli) = molecular target: T5, His-FtsW Y242H (E. coli) (UniProt P0ABG4)
T5 sequence: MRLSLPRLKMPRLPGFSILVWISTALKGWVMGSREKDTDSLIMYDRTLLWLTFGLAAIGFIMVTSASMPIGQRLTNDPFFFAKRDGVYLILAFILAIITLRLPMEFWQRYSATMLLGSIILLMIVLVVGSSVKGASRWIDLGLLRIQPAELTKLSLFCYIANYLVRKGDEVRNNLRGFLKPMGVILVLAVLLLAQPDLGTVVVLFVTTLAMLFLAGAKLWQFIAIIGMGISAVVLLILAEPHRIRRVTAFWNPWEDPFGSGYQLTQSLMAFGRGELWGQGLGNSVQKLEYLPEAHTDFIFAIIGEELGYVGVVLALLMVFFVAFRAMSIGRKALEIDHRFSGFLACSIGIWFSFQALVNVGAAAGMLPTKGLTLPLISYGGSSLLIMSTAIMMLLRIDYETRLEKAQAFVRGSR

Measured: binding

B1: FtsI(PBP3), untagged (E. coli) (enzyme, UniProt P0AD68 1-577)
chain: MKAAAKTQKPKRQEEHANFISWRFALLCGCILLALAFLLGRVAWLQVISPDMLVKEGDMRSLRVQQVSTSRGMITDRSGRPLAVSVPVKAIWADPKEVHDAGGISVGDRWKALANALNIPLDQLSARINANPKGRFIYLARQVNPDMADYIKKLKLPGIHLREESRRYYPSGEVTAHLIGFTNVDSQGIEGVEKSFDKWLTGQPGERIVRKDRYGRVIEDISSTDSQAAHNLALSIDERLQALVYRELNNAVAFNKAESGSAVLVDVNTGEVLAMANSPSYNPNNLSGTPKEAMRNRTITDVFEPGSTVKPMVVMTALQRGVVRENSVLNTIPYRINGHEIKDVARYSELTLTGVLQKSSNVGVSKLALAMPSSALVDTYSRFGLGKATNLGLVGERSGLYPQKQRWSDIERATFSFGYGLMVTPLQLARVYATIGSYGIYRPLSITKVDPPVPGERVFPESIVRTVVHMMESVALPGGGGVKAAIKGYRIAIKTGTAKKVGPDGRYINKYIAYTAGVAPASQPRFALVVVINDPQAGKYYGGAVSAPVFGAIMGGVLRTMNIEPDALTTGDKNEFV
binds: all assays above
